Data published in the supplement of paper PMC10849652.
The other results are listed elsewhere or left out.

By UniProt entry, the sequences of proteins in these tests, tags left out. Where a name states a change or a piece, a line headed by the entry shows the natural chain unless it says otherwise.
UniProt Q9UIL1: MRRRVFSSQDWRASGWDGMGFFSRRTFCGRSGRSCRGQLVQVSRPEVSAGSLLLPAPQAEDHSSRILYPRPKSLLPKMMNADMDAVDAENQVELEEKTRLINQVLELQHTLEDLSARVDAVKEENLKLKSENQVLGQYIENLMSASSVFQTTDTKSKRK
UniProt Q96LT4: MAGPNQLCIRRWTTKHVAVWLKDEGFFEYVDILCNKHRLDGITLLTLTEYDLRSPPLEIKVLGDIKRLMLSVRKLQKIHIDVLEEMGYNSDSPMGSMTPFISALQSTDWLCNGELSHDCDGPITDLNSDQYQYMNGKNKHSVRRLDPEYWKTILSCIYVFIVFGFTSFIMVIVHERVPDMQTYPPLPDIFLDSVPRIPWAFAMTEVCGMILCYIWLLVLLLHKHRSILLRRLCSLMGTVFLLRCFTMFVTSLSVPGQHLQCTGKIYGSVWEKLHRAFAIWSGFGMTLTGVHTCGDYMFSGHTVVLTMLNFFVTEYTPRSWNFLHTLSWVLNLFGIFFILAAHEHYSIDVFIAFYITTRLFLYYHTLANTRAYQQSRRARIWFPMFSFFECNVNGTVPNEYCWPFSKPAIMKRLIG
UniProt Q9NRG7: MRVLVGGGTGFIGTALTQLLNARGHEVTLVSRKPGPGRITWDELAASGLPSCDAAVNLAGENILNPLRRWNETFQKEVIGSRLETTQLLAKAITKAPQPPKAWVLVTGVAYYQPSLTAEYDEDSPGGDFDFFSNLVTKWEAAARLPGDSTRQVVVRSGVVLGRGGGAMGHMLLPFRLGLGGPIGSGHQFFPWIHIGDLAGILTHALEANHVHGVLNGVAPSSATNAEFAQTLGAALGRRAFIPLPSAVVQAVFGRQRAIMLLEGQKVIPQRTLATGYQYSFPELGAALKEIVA
UniProt O00560: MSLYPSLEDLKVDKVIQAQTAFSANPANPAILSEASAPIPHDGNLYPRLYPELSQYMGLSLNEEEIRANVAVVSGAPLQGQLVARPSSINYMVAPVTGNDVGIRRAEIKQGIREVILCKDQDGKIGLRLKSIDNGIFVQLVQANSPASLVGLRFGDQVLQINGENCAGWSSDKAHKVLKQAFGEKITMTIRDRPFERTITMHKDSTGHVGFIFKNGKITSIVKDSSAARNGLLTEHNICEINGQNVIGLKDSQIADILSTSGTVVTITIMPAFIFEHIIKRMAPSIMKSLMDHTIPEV
UniProt O75056, whole entry, looked up: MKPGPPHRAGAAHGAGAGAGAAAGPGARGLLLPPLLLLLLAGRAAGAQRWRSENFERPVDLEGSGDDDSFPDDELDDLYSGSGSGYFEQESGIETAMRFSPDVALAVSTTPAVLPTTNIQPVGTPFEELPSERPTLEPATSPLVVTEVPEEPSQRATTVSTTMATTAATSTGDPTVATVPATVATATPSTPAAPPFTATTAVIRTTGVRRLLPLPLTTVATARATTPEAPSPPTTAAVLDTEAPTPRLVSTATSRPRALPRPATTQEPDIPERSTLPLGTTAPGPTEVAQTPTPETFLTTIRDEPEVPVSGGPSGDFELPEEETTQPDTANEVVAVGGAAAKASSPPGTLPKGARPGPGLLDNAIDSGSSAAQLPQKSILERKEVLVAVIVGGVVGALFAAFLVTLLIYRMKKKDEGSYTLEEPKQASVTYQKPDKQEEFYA
UniProt Q9NXZ1: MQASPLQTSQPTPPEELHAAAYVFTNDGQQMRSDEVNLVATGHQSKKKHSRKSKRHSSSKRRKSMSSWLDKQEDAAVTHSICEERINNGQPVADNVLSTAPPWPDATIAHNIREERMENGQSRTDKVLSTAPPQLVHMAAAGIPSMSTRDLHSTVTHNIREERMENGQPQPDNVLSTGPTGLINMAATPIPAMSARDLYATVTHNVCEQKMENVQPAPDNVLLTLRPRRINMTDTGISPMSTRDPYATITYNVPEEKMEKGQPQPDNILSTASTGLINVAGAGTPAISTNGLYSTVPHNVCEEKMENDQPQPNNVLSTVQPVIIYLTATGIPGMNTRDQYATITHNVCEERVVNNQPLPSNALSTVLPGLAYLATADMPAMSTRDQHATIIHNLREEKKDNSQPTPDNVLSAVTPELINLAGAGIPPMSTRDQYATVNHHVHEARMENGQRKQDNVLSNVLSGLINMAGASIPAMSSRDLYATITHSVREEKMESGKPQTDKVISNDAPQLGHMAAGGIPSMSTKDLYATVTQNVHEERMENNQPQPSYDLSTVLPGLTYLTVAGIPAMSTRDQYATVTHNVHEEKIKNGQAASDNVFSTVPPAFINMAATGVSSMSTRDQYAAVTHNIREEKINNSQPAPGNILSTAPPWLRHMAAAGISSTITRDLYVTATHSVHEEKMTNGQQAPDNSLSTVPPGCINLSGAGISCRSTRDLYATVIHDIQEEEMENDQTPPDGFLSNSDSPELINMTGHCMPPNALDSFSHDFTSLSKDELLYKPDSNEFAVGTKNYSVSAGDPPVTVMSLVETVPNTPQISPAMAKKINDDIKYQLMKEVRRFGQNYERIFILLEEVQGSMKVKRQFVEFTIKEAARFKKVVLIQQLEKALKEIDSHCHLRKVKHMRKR
UniProt Q9BWG6: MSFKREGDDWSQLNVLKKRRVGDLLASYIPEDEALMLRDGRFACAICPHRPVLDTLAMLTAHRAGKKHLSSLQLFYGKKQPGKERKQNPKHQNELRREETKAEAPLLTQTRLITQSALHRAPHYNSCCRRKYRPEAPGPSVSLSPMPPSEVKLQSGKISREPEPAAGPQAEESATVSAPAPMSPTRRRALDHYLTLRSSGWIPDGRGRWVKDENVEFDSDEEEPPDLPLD
UniProt Q9HAJ7: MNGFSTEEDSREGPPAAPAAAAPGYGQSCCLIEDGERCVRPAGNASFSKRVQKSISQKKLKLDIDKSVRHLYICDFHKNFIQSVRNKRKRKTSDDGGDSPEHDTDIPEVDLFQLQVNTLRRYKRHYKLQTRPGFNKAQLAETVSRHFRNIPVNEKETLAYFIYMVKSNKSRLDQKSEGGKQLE
UniProt Q8N9R8: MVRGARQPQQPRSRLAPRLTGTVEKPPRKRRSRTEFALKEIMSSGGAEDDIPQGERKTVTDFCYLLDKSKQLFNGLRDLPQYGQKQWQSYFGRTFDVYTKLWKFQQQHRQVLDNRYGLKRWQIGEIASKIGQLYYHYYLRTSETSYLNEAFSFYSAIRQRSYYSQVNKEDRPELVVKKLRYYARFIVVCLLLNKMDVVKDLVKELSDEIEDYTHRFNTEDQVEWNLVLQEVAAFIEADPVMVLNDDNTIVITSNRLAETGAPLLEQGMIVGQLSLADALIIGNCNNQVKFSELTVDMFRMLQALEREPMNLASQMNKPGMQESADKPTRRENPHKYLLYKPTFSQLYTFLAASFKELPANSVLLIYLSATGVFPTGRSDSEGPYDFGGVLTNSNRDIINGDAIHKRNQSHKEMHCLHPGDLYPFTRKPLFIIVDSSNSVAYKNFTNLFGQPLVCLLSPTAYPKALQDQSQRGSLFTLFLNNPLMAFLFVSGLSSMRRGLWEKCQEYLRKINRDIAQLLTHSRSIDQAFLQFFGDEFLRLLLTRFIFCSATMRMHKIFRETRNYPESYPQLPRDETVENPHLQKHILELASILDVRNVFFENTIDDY
UniProt Q9Y6D0, whole entry, looked up: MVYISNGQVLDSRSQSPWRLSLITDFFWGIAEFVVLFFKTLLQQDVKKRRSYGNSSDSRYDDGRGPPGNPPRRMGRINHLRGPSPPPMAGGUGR
UniProt O75446: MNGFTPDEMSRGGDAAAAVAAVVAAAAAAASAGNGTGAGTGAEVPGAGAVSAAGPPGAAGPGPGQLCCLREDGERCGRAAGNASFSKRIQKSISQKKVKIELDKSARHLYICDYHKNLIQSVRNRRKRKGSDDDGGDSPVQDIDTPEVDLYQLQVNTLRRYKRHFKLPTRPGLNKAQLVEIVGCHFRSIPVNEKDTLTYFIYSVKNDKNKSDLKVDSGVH
UniProt Q96T21: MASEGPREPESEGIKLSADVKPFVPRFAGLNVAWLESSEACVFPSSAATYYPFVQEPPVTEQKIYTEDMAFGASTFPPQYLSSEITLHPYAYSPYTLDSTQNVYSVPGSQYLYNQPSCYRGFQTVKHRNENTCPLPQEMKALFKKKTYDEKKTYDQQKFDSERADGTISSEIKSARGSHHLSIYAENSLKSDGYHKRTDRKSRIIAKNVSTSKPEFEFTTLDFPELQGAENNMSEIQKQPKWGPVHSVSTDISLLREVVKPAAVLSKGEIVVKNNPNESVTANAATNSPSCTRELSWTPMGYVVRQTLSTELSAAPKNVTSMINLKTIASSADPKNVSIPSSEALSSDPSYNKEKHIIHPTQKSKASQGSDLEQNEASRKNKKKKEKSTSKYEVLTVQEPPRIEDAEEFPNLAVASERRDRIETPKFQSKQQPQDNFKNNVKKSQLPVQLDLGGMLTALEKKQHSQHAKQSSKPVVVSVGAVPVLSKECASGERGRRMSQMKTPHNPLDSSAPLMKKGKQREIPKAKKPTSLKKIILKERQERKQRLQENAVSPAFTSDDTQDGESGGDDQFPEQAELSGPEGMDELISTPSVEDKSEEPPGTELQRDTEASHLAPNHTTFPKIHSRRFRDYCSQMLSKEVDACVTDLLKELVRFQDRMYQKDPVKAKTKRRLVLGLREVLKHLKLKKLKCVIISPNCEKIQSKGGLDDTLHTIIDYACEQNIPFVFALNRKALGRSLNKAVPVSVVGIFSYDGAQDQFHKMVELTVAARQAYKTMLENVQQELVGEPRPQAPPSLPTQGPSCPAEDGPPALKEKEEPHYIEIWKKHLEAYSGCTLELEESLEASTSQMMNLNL
UniProt Q9Y2G9: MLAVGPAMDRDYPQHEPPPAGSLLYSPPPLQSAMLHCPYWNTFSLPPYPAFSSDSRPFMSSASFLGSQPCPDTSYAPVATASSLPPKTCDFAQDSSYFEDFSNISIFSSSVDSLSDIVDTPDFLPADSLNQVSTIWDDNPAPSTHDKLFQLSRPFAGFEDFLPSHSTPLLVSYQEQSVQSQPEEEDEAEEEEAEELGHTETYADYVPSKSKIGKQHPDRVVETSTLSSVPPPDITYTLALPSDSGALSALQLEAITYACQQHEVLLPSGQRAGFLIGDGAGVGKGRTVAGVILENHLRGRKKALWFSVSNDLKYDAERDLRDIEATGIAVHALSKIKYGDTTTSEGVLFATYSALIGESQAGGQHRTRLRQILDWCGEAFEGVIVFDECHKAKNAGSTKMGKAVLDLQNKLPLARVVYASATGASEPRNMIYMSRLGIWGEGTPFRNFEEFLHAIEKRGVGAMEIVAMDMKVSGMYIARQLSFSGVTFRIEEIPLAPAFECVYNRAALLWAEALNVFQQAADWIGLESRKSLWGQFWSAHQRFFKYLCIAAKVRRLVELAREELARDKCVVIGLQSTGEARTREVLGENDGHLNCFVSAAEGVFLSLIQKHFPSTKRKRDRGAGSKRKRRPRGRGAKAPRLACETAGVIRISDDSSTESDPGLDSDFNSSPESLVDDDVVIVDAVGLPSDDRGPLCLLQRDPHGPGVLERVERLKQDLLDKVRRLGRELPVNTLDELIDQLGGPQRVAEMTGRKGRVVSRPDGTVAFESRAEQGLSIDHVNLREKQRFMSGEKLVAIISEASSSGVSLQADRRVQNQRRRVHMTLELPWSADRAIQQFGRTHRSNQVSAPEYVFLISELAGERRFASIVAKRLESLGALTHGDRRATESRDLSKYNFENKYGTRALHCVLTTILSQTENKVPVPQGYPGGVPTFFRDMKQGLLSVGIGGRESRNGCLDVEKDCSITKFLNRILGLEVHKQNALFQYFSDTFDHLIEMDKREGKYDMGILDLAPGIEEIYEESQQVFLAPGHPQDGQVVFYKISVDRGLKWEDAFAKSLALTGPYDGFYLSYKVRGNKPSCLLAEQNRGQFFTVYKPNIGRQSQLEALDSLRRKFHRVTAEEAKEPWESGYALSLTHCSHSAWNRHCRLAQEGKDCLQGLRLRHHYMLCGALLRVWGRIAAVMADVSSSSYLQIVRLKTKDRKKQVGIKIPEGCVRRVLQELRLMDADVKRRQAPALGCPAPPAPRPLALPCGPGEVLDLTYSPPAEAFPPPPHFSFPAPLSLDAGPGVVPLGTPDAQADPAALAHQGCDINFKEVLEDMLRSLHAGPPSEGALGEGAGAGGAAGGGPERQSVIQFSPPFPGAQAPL
UniProt A6NKF1: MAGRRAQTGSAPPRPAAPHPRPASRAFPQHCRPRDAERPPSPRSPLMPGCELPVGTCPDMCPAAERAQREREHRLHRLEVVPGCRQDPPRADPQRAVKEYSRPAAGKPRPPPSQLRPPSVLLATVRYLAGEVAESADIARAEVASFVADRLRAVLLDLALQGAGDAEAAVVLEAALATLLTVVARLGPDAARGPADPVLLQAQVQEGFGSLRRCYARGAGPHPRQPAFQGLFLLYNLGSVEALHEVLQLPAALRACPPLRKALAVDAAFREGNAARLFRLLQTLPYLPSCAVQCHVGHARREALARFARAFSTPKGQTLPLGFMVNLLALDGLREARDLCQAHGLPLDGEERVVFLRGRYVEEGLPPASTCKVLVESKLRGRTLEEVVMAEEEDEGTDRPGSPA
UniProt P63302, whole entry, looked up: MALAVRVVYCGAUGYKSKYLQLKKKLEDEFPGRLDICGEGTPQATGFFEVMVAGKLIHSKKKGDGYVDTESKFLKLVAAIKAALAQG

Compound: C#Cc1cccc(Nc2ncnc3cc(OCCOC)c(OCCOC)cc23)c1 [erlotinib]
Assay: log2 fold change, soluble protein after heating vs DMSO (PISA); higher = thermal stabilisation; K562 lysate, 10 uM; active = over 0.2 and 3.5 SD of the protein, either way, in both replicates (recomputed)
Method in brief: (§1)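 A 30 min treatment with 10 μM compound was applied to crude K562 extract at 1 mg/mL protein in PBS pH 7.4 with 1 mM MgCl2. Heating for 3 min spanned 48°C-58°C, after which aliquots were pooled, adjusted to 0.5% NP-40 at 4°C and spun at 21,000xg for 90 min. TMTpro 16plex LC-MS/MS of the supernatant, with channel sums equalised, gave values recorded as log-two fold change in thermal stability against solvent controls, from duplicates.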

log2 fold change, inactive:
SEPTIN8 (UniProt F8W8I8) -0.091
SCOC (UniProt Q9UIL1) -0.076
SAMD8 (UniProt Q96LT4) 0.306
SDR39U1 (UniProt Q9NRG7) -0.058
SDCBP isoform 2 (UniProt O00560) -0.224
SDC3 (UniProt O75056) -0.11
SDCCAG8 (UniProt S4R323) -0.347
SAGE1 (UniProt Q9NXZ1) 0.007
SCNM1 (UniProt Q9BWG6) 0.045
SAP30L (UniProt Q9HAJ7) 0.012

Compound: C/C(=N\NC(=O)C1=CC(=CC=C1)S(=O)(=O)N2CCOCC2)/C3=C(C=CC(=C3)Cl)O
Assay: as above
Method in brief: as §1

log2 fold change, inactive:
SCAI isoform 2 (UniProt Q8N9R8) 0.2
SELENOK (UniProt Q9Y6D0) -0.075
SDHB, A0A087WXX8 -0.065
SAP30 (UniProt O75446) 0.06
SECISBP2 (UniProt Q96T21) -0.323
SEC14L1 isoform 2 (UniProt Q92503) -0.087
SBNO2 (UniProt Q9Y2G9) 0.011

Compound: C1=CC(=CC=C1C2=NC3=C(N2)C=C(C=C3)C(=O)N)OC4=CC=C(C=C4)Cl
Assay: as above
Method in brief: as §1

log2 fold change, inactive:
SEPTIN8 (UniProt F8W8I8) -0.253
SCOC (UniProt Q9UIL1) 0.074
SAMD8 (UniProt Q96LT4) 0.038
SDR39U1 (UniProt Q9NRG7) 0.086
SDCBP isoform 2 (UniProt O00560) 0
SDC3 (UniProt O75056) 0.047
SDCCAG8 (UniProt S4R323) 0.103
SAGE1 (UniProt Q9NXZ1) 0.133
SCNM1 (UniProt Q9BWG6) 0.044
SAP30L (UniProt Q9HAJ7) -0.021

Compound: C1=CC2=C(C=CC(=C2)/C=C\3/C(=O)NC(=NCC4=CC=CS4)S3)N=C1
Assay: as above
Method in brief: as §1

log2 fold change, inactive:
SCAI isoform 2 (UniProt Q8N9R8) -0.087
SELENOK (UniProt Q9Y6D0) 0.02
SDHB, A0A087WXX8 -0.073
SAP30 (UniProt O75446) 0.025
SECISBP2 (UniProt Q96T21) -0.012
SEC14L1 isoform 2 (UniProt Q92503) 0.04
SBNO2 (UniProt Q9Y2G9) -0.068

Compound: C1=CC2=NC=CN=C2C=C1/C=C/3\C(=O)NC(=O)S3
Assay: as above
Method in brief: as §1

log2 fold change, inactive:
SCAI isoform 2 (UniProt Q8N9R8) 0.012
SDR39U1 (UniProt Q9NRG7) 0.008
SDCBP isoform 2 (UniProt O00560) -0.017
SELENOK (UniProt Q9Y6D0) 0.089
SAP30 (UniProt O75446) -0.037
SAFB2 (UniProt K7EQU4) 0.038
SAC3D1 (UniProt A6NKF1) 0.158
SEC22A (UniProt Q96IW7) -0.03
SDF2 (UniProt Q99470) 0.039
SECISBP2 (UniProt Q96T21) 0.005
SCARB2 isoform 2 (UniProt Q14108) 0.03

Compound: C1=CC=C(C=C1)C2=NC(=C(N2)C3=CC=NC=C3)C4=CC(=C(C=C4)Cl)O
Assay: as above
Method in brief: as §1

log2 fold change, inactive:
SCAI isoform 2 (UniProt Q8N9R8) 0.284
SEPTIN8 (UniProt F8W8I8) 0.111
SCOC (UniProt Q9UIL1) 0.134
SAMD8 (UniProt Q96LT4) -0.03
SDR39U1 (UniProt Q9NRG7) 0.28
SAMD1 (UniProt Q6SPF0) 0.166
SDCBP isoform 2 (UniProt O00560) -0.032
SELENOM (UniProt Q8WWX9) -0.043
SEC16A isoform 2 (UniProt O15027) -0.07
SELENOO (UniProt Q9BVL4) 0.147
SENP7 (UniProt Q9BQF6) 0.09
SDC3 (UniProt O75056) 0.096
SDCCAG8 (UniProt S4R323) 0.007
SELENOW (UniProt P63302) 0.056
SAMD9 (UniProt Q5K651) -0.066
SAGE1 (UniProt Q9NXZ1) 0.026
SCNM1 (UniProt Q9BWG6) -0.005
SAP30L (UniProt Q9HAJ7) 0.125
SEC16A isoform 3 (UniProt O15027) 0.41
SEC22A (UniProt Q96IW7) -0.032
SECISBP2 (UniProt Q96T21) 0.007
SCAND1 (UniProt P57086) 0.108

Compound: C1=CC=C2C(=C1)C3=NNC4=CC=CC(=C43)C2=O
Assay: as above
Method in brief: as §1

log2 fold change, inactive:
SCAI isoform 2 (UniProt Q8N9R8) -0.028
SELENOK (UniProt Q9Y6D0) 0.044
SDHB, A0A087WXX8 0.136
SAP30 (UniProt O75446) 0.013
SECISBP2 (UniProt Q96T21) 0.05
SEC14L1 isoform 2 (UniProt Q92503) -0.13
SBNO2 (UniProt Q9Y2G9) -0.023
